The values below come from the supplement of paper PMC10032668.

Protein sequences, listed by entry. Tags and fused reporters are not part of them.
MSN, P26038, UniProt P26038, whole entry: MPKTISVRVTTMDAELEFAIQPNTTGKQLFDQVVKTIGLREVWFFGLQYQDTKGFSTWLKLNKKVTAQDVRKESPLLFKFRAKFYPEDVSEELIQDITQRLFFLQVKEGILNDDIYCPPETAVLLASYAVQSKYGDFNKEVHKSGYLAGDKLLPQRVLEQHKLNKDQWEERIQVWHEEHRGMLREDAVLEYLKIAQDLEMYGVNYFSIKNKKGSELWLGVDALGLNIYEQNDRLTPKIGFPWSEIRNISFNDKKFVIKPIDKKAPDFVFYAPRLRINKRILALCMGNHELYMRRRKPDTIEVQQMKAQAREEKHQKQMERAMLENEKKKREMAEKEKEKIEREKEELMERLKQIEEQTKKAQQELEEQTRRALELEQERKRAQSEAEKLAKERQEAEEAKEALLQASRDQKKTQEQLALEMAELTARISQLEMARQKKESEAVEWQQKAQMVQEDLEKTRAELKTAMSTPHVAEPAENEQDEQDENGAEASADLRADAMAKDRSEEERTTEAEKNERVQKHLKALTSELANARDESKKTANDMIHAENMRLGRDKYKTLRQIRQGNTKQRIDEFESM
EIF2B1, Q14232, UniProt Q14232, whole entry: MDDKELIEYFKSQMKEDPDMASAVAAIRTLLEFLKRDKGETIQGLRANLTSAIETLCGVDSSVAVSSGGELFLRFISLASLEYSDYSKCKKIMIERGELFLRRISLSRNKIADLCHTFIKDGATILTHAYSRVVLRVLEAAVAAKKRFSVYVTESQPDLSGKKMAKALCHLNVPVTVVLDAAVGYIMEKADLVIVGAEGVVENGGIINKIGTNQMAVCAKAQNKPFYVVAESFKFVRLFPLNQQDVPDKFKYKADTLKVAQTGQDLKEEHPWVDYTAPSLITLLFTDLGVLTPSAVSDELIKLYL
PLK1, P53350, UniProt P53350, whole entry: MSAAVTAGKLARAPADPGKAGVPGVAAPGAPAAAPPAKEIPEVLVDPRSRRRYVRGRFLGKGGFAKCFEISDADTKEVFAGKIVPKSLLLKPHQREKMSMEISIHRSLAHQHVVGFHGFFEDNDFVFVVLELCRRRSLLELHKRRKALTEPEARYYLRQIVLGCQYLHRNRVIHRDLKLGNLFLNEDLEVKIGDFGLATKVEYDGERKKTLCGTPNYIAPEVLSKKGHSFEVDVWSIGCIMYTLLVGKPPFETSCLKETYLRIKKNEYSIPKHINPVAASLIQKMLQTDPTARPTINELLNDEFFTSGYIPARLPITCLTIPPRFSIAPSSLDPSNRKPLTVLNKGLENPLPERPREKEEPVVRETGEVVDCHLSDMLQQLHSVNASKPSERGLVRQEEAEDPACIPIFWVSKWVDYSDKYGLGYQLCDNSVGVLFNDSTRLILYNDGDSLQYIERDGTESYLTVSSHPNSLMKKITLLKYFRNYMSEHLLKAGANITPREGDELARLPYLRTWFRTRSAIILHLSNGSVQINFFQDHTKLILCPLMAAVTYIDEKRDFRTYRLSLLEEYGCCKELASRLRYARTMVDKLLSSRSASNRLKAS
SMARCA4, P51532, UniProt P51532, whole entry: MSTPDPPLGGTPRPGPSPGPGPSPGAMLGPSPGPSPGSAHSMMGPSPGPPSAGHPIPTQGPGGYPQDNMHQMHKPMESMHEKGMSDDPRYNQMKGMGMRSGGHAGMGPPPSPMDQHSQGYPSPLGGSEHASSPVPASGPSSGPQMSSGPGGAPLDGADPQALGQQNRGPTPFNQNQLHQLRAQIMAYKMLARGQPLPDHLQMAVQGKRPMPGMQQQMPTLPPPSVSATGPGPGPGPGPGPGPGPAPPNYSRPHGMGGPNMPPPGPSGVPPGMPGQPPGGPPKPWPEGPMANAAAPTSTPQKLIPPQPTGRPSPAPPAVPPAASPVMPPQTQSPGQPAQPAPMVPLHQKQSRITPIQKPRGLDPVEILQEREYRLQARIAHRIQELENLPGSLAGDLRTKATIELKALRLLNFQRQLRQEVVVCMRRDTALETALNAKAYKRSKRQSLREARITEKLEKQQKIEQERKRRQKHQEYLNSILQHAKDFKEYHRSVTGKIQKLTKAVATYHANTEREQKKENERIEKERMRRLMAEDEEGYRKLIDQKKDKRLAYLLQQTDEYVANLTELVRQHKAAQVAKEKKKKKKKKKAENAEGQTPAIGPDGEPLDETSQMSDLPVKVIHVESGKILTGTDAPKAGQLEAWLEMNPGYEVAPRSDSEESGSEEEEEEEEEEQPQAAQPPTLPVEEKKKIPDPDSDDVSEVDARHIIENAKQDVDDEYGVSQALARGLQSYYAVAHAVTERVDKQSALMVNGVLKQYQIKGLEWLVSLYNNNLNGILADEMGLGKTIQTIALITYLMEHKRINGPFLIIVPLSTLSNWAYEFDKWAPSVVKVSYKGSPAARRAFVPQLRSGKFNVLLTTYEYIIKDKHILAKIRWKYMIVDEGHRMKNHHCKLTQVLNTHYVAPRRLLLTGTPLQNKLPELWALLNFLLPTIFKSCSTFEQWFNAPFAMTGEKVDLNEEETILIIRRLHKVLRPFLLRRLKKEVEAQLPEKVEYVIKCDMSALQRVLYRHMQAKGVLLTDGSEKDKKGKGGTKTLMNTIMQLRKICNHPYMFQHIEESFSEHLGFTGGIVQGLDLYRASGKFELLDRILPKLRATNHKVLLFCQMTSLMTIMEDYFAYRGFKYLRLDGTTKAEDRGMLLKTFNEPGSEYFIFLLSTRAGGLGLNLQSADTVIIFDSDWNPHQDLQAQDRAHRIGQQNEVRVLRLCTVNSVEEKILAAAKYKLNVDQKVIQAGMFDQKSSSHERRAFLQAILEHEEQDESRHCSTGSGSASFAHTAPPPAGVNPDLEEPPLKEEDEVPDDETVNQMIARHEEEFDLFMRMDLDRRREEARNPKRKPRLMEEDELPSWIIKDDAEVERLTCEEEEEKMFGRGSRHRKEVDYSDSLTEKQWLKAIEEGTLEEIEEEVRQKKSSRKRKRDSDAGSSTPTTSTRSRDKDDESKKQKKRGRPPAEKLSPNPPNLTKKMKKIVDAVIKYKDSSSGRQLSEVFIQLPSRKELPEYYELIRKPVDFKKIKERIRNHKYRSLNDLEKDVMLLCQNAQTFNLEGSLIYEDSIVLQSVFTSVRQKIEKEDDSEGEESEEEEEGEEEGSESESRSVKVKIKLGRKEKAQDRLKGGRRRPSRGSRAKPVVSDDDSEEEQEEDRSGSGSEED
SOD1, P00441, UniProt P00441, whole entry: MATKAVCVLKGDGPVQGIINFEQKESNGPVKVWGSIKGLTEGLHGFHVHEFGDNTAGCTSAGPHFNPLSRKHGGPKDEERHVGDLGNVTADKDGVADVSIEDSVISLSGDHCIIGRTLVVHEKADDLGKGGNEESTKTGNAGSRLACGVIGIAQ
TUBGCP3, Q96CW5, UniProt Q96CW5, whole entry: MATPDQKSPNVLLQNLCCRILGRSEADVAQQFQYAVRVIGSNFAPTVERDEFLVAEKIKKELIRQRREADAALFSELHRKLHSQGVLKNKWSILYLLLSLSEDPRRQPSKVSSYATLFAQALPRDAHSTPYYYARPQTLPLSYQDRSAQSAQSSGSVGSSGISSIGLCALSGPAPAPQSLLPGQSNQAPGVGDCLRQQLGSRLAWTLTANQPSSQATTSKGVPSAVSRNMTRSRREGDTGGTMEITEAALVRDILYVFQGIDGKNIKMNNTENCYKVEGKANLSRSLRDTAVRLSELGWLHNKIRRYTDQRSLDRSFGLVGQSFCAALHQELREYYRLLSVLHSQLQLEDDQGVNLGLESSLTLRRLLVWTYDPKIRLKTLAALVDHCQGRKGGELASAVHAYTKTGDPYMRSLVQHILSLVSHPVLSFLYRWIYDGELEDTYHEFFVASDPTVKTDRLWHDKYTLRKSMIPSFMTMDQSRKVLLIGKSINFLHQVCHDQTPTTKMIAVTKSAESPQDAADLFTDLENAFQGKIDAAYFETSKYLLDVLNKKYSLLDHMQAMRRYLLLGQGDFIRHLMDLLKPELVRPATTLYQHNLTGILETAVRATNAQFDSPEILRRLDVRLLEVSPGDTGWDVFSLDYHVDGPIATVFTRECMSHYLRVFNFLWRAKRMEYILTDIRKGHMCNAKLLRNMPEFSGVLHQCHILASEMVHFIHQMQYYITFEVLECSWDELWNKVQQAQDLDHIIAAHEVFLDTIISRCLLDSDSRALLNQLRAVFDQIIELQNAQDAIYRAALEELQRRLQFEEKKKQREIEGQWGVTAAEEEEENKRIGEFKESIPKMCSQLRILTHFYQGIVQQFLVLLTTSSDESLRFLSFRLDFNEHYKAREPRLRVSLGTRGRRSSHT
COX6C, P09669, UniProt P09669, whole entry: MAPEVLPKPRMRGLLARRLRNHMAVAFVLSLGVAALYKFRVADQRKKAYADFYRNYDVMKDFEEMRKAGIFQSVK
ASF1B, Q9NVP2, UniProt Q9NVP2, whole entry: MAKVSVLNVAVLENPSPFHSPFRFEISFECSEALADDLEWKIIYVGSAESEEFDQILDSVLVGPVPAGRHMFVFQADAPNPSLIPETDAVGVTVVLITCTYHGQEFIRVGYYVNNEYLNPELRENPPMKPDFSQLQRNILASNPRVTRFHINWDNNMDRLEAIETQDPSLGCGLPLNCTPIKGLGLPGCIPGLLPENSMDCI
TF, P02787, UniProt P02787, whole entry: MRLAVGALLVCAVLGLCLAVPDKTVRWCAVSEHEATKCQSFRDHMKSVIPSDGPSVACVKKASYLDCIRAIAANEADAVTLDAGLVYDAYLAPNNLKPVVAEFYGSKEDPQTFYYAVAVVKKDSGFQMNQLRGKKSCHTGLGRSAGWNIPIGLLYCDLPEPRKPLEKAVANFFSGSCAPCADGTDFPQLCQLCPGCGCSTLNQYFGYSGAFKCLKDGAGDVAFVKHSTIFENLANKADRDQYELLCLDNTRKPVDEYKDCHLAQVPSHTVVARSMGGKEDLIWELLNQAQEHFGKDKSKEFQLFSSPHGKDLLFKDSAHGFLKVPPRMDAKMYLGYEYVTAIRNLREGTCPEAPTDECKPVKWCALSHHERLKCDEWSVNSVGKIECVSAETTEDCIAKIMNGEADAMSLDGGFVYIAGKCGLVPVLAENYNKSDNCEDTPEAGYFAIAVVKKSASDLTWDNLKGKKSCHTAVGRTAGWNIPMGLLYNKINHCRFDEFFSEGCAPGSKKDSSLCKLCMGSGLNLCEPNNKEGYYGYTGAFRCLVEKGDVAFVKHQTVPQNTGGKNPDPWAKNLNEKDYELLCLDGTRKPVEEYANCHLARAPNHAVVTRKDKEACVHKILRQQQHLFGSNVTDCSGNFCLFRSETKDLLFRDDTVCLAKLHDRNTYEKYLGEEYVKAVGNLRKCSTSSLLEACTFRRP
CKS2, P33552, UniProt P33552, whole entry: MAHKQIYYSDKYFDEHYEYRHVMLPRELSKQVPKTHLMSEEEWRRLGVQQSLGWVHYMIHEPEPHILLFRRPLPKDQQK
DLAT, P10515, UniProt P10515, whole entry: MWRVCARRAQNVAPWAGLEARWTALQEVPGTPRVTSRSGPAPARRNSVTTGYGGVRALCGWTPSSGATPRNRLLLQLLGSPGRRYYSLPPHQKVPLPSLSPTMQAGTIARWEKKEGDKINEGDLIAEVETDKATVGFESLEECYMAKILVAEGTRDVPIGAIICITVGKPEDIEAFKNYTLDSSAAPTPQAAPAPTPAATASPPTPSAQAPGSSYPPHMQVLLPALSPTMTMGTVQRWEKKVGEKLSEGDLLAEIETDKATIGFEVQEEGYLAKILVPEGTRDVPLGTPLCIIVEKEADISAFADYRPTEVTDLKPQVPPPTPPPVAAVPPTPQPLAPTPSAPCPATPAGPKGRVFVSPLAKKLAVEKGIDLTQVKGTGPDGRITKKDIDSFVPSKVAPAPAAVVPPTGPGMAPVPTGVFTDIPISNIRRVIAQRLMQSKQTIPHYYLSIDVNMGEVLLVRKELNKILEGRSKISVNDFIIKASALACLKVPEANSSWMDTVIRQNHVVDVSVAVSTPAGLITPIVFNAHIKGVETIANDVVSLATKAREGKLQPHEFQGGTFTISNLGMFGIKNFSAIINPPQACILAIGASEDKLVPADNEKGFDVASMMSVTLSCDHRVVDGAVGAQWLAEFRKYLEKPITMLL
FAM168B, A1KXE4, UniProt A1KXE4, whole entry: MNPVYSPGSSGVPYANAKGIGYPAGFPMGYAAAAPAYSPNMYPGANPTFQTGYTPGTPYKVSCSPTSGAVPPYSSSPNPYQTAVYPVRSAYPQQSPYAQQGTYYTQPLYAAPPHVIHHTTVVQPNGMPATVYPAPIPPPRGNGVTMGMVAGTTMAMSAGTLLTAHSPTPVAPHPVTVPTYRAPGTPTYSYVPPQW
PCBP2, Q15366, UniProt Q15366, whole entry: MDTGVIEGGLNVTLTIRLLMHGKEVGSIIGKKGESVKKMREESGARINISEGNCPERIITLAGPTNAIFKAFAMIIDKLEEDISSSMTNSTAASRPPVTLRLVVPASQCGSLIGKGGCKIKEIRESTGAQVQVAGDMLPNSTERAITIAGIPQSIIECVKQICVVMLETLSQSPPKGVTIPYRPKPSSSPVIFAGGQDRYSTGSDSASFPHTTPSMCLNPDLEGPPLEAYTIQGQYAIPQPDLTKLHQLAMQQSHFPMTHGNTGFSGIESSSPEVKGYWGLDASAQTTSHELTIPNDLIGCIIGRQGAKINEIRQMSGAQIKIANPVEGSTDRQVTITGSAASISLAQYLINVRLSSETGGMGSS

± gives the standard deviation of the averaged measurements. This is one part of the list. The list holds hits alone, and they repeat only in part.

Holding throughout (assay): PRISMA enrichment of interactor (LFQ) in peptide spot vs all other peptide spots (log2 fold change); higher = stronger / more specific binding of the interactor to the peptide
One assay addresses ARMC6, Q6NXE6. The method, then:
(§1)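 PRISMA: 15-aa overlapping tiles (offset 8 aa) of 60 microproteins, plus SOS1/GLUT1 control peptides, were spot-synthesized on cellulose membranes in triplicate. Membranes were incubated with benzonase-treated HEK293T lysate, and bound proteins were identified by LC-MS/MS with LFQ. Enrichment is the log2 fold change of each protein in one spot versus all other spots. Only interactors passing the significance cutoff are listed.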

Another assay addresses ATXN2, Q99700. As to the method:
as §1

In another assay the target is BAZ1B, Q9UIG0. The method, then:
as §1

For another assay, the target named is CDC42EP1, Q00587. As to the method: as §1
In a further assay the target is CHCHD1, Q96BP2. The method, then: as §1
For the next assay, the target named is CHMP4B, Q9H444. The method, then:
as §1

Another assay has as its target COQ8A, Q8NI60. The method, then:
as §1

For another assay, the target named is DFFA, O00273. The method, then: as §1
For another assay, the target named is DKC1, O60832. As to the method: as §1
In the next assay the target is DNAJB11, Q9UBS4. The method, then:
as §1

The target of a further assay is EEF1B2, P24534. As to the method:
as §1

The target in another assay is EHD1, Q9H4M9. As to the method: as §1
The next assay concerns the target FAM50A, Q14320. The method, then: as §1
For a further assay, the target named is MAPRE1, Q15691. As to the method:
as §1

Another assay deals with MSN, P26038. The method, then:
as §1

A further assay has as its target NOP56, O00567. As to the method: as §1
The target in another assay is NSD2, O96028. The method, then: as §1
The target of another assay is NUP214, P35658. As to the method:
as §1

The next assay deals with POLD1, P28340. The method, then:
as §1

For another assay, the target named is POLD2, P49005. The method, then: as §1
The next assay concerns the target PRPS2, P11908. As to the method:
as §1

A further assay has as its target RAB3GAP2, Q9H2M9. As to the method: as §1
In a further assay the target is RAE1, P78406. The method, then: as §1
The next assay deals with SDF2L1, Q9HCN8. As to the method: as §1
A further assay has as its target SSR3, Q9UNL2. As to the method: as §1
Another assay deals with UFD1, Q92890. As to the method: as §1
The target of the next assay is UTP18, Q9Y5J1. As to the method:
as §1

The target in another assay is VIRMA, Q69YN4. The method, then:
as §1

The next assay deals with ZC3H11A, O75152. The method, then:
as §1

For another assay, the target named is ZFR, Q96KR1. The method, then:
as §1

For another assay, the target named is CSNK2A1, P68400. The method, then: as §1
For another assay, the target named is EIF2B1, Q14232. As to the method:
as §1

For a further assay, the target named is NOL12, Q9UGY1. The method, then:
as §1

The target of a further assay is POLR2B, P30876. As to the method:
as §1

For a further assay, the target named is POLRMT, O00411. The method, then:
as §1

A further assay concerns the target PSMD7, P51665. The method, then: as §1
In another assay the target is SDF2, Q99470. As to the method: as §1
Another assay concerns the target ASNS, P08243. The method, then: as §1
The next assay deals with AURKAIP1, Q9NWT8. The method, then: as §1
A further assay concerns the target BOLA2, Q9H3K6. As to the method:
as §1

In a further assay the target is CENPE, Q02224. As to the method: as §1
A further assay concerns the target KHSRP, Q92945. The method, then: as §1
The next assay deals with LEO1, Q8WVC0. The method, then:
as §1

Another assay deals with MAGED2, Q9UNF1. The method, then:
as §1

For the next assay, the target named is MAGT1, Q9H0U3. The method, then:
as §1

In the next assay the target is MRPS15, P82914. As to the method:
as §1

A further assay addresses MRPS33, Q9Y291. As to the method:
as §1

The next assay concerns the target PLK1, P53350. The method, then: as §1
The target in a further assay is REXO4, Q9GZR2. As to the method: as §1
A further assay deals with SCYL1, Q96KG9. As to the method:
as §1

The target in the next assay is SMARCA4, P51532. As to the method: as §1
In a further assay the target is SOD1, P00441. As to the method: as §1
A further assay concerns the target SUPT5H, O00267. As to the method:
as §1

Another assay deals with THRAP3, Q9Y2W1. As to the method: as §1
For the next assay, the target named is TUBGCP3, Q96CW5. As to the method:
as §1

The target of another assay is UBAP2, Q5T6F2. The method, then: as §1
The next assay deals with WDR12, Q9GZL7. The method, then: as §1
For the next assay, the target named is BRIX1, Q8TDN6. As to the method: as §1
In a further assay the target is COX6C, P09669. As to the method:
as §1

A further assay addresses GABARAPL2, P60520. As to the method: as §1
The next assay addresses NCBP2AS2, Q69YL0. As to the method:
as §1

Another assay has as its target PDCL3, Q9H2J4. The method, then:
as §1

The target in a further assay is PRAF2, O60831. The method, then:
as §1

The target in the next assay is SDAD1, Q9NVU7. The method, then: as §1
The next assay concerns the target TBCD, Q9BTW9. The method, then: as §1
For a further assay, the target named is TFRC, P02786. As to the method:
as §1

A further assay has as its target ASF1B, Q9NVP2. The method, then:
as §1

Another assay addresses MRPL38, Q96DV4. As to the method:
as §1

Another assay concerns the target NAP1L1, P55209. As to the method:
as §1

Another assay deals with NUP188, Q5SRE5. As to the method: as §1
A further assay deals with QRICH1, Q2TAL8. The method, then:
as §1

Another assay concerns the target SYNCRIP, O60506. As to the method:
as §1

The next assay concerns the target TF, P02787. The method, then: as §1
The target in the next assay is CARM1, Q86X55. The method, then: as §1
Another assay concerns the target CGN, Q9P2M7. As to the method: as §1
A further assay concerns the target CKS2, P33552. The method, then:
as §1

The target in a further assay is COPZ1, P61923. The method, then: as §1
The target in another assay is CTR9, Q6PD62. The method, then:
as §1

Another assay concerns the target DDX5, P17844. As to the method:
as §1

A further assay deals with DLAT, P10515. As to the method: as §1
Another assay has as its target FAM168B, A1KXE4. The method, then:
as §1

Another assay has as its target MBNL1, Q9NR56. The method, then:
as §1

A further assay addresses MRPL27, Q9P0M9. The method, then: as §1
Another assay addresses PCBP2, Q15366. The method, then: as §1
Another assay has as its target PHGDH, O43175. As to the method: as §1
A further assay concerns the target POU2F1, P14859. As to the method: as §1
The next assay has as its target RBM38, Q9H0Z9. The method, then: as §1
The target in a further assay is SP1, P08047. As to the method: as §1

For the molecule ICVTLLPSVYRPCTS [EBAG9], the “PRISMA enrichment of interactor (log2)” value turned out to be 10.6 with ARMC6, Q6NXE6; 5.77 with ATXN2, Q99700; 5.43 in the assay with BAZ1B, Q9UIG0; 4.71 in the assay with CDC42EP1, Q00587; 5.29 in the assay with CHCHD1, Q96BP2; 4.57 in the assay with CHMP4B, Q9H444. Also, the “PRISMA enrichment of interactor (log2)” value was 4.35 with COQ8A, Q8NI60; 8.98 in the assay with DFFA, O00273; 4.94 with DKC1, O60832; 5.67 with DNAJB11, Q9UBS4; 4.51 with EEF1B2, P24534; 5.69 in the assay with EHD1, Q9H4M9. In addition, the “PRISMA enrichment of interactor (log2)” value came to 4.38 in the assay with FAM50A, Q14320; 5.47 with MAPRE1, Q15691; 6.41 with MSN, P26038; 6.67 with NOP56, O00567; 5.76 with NSD2, O96028; 4.43 with NUP214, P35658. Also, the “PRISMA enrichment of interactor (log2)” value with POLD1, P28340 was determined as 5.29; with POLD2, P49005, 4.51; in the assay with PRPS2, P11908 it was 4.03; with RAB3GAP2, Q9H2M9, 4.67; in the assay with RAE1, P78406, 6.45; with SDF2L1, Q9HCN8 it was 4.52. The “PRISMA enrichment of interactor (log2)” value in the assay with SSR3, Q9UNL2 was determined as 4.77; with UFD1, Q92890, 4.35; with UTP18, Q9Y5J1, 6.21; with VIRMA, Q69YN4, 5.58; with ZC3H11A, O75152 it was 4.4; with ZFR, Q96KR1 it was 4.97.

As for LETIQKKLAAKGLRD [NDUFB3], the “PRISMA enrichment of interactor (log2)” value with ARMC6, Q6NXE6 amounted to 6.27; in the assay with CSNK2A1, P68400 it was 5.8; with EIF2B1, Q14232, 4.39; with NOL12, Q9UGY1, 10.5; with POLR2B, P30876, 4.81; in the assay with POLRMT, O00411, 5.23. The “PRISMA enrichment of interactor (log2)” value is 5.64 with PSMD7, P51665; 6.4 with RAB3GAP2, Q9H2M9; 4.96 in the assay with SDF2, Q99470.

As to SIRRSGLPERVHEVF, the “PRISMA enrichment of interactor (log2)” value amounted to 4.5 with ASNS, P08243; 10.3 in the assay with AURKAIP1, Q9NWT8; 6.11 with BOLA2, Q9H3K6; 4.18 with CENPE, Q02224; 5.11 with KHSRP, Q92945; 4.67 with LEO1, Q8WVC0. Moreover, the “PRISMA enrichment of interactor (log2)” value in the assay with MAGED2, Q9UNF1 came to 4.82; in the assay with MAGT1, Q9H0U3 it was 5.05; with MRPS15, P82914, 7; with MRPS33, Q9Y291 it was 4.33; in the assay with PLK1, P53350 it was 6.7; with REXO4, Q9GZR2 it was 4.55. Moreover, the “PRISMA enrichment of interactor (log2)” value with SCYL1, Q96KG9 came to 5.38; with SMARCA4, P51532, 6.64; with SOD1, P00441, 4.61; with SUPT5H, O00267, 7.01; with THRAP3, Q9Y2W1, 4.82; with TUBGCP3, Q96CW5, 4.02. The “PRISMA enrichment of interactor (log2)” value with UBAP2, Q5T6F2 is 7.36; in the assay with WDR12, Q9GZL7, 5.03.

On to VGSRYLLSIRRSGLP, for which the “PRISMA enrichment of interactor (log2)” value came to 5.24 with ARMC6, Q6NXE6; 6.56 with BRIX1, Q8TDN6; 7.43 in the assay with COX6C, P09669; 4.91 with GABARAPL2, P60520; 6.2 in the assay with NCBP2AS2, Q69YL0; 8.2 with PDCL3, Q9H2J4. Moreover, the “PRISMA enrichment of interactor (log2)” value stood at 4.87 with POLD1, P28340; 3.76 in the assay with PRAF2, O60831; 5.63 with SDAD1, Q9NVU7; 5.91 with TBCD, Q9BTW9; 5.52 in the assay with TFRC, P02786.

RGLGPAGAARKRGNS [TBX5-AS1]: the “PRISMA enrichment of interactor (log2)” value was 4.13 in the assay with ASF1B, Q9NVP2; 4.34 with MRPL38, Q96DV4; 5.52 ± 0.75 in the assay with NAP1L1, P55209; 4.98 with NUP188, Q5SRE5; 4.1 with QRICH1, Q2TAL8; 6.99 with SYNCRIP, O60506. The “PRISMA enrichment of interactor (log2)” value in the assay with TF, P02787 was found to be 5.72.

Take HALFLFPFPVLTVTQ [LINC00881]: the “PRISMA enrichment of interactor (log2)” value with ARMC6, Q6NXE6 was found to be 6.76; in the assay with CARM1, Q86X55 it was 4.34; with CGN, Q9P2M7 it was 5.66; in the assay with CKS2, P33552, 5.12; in the assay with COPZ1, P61923 it was 4.55; in the assay with CTR9, Q6PD62, 6.2. Moreover, the “PRISMA enrichment of interactor (log2)” value was 4.59 with DDX5, P17844; 4.84 in the assay with DLAT, P10515; 4.65 with FAM168B, A1KXE4; 4.82 in the assay with MBNL1, Q9NR56; 6.85 with MRPL27, Q9P0M9; 3.95 with PCBP2, Q15366. Also, the “PRISMA enrichment of interactor (log2)” value amounted to 4.54 with PHGDH, O43175; 4.28 in the assay with POU2F1, P14859; 4.35 in the assay with QRICH1, Q2TAL8; 4.43 with RBM38, Q9H0Z9; 4.87 with SP1, P08047.
